Literature values, collected in patent US20100029771A1, “TREATMENT OF ADDICTIVE DISORDERS” (priority 2008, published 2010).
At least one compound was matched to its structure with a doubt left.

Legend:
[1] = test system: GABAB receptor; conditions: hippocampal neurons, via GABAB receptor
[2] = alcoholic subjects; each drug given individually

SMILES: O=C(O)CCCO [GHB, gamma-hydroxybutyrate]
- effect on H-current [1]: decrease the H-current
- effect on potassium current [1]: increase the potassium current
- effect on craving [2]: reduce craving
